Results deposited as PubChem BioAssay AID1259254 (NCATS, 2017)
Assay: 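Gene knock-downs that lead to re-replication, shown by excess G2 DNA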 (primary screen). Cell system: human HCT116 colorectal cancer cells. Reagent: single siRNA against human genes. Timing: 3 days. Measurement: 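Imaged Hoechst DNA stain sorts each cell into a cycle phase by DNA amount; per plate, G2 fraction set to 0% for non-targeting and 100% for GMNN siRNA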. Reading the numbers: G2 robust z-score: higher = more G2 cells, more excess DNA replication. Hit rule: 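Active siRNAs have a G2 robust z of 5 or more median absolute deviations over the median, which in these data means about 38% or higher of GMNN control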.
The whole screen tested about 59,000 reagents; below is an unselected part. Over the whole deposit, about 1,550 (2.6%) are marked active. 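G2 share is only a proxy for re-replication; each gene was hit by three separate siRNAs, and active genes were retested.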 Unmarked entries are inactive. Reagents against one gene are numbered here. Further read-outs or replicates are left out here. Not given: the amount of reagent.

| target gene | reagent no. | G2 robust z-score |
| --- | --- | --- |
| WDR17 (WD repeat domain 17) | 1 | 0.255 |
| WDR17 (WD repeat domain 17) | 2 | 0.238 |
| WDR17 (WD repeat domain 17) | 3 | 2.1 |
| LOC643339 | 1 | -0.317 |
| LOC643339 | 2 | 1.62 |
| LOC643339 | 3 | 4.34 |
| H4C16 (H4 histone 16) | 1 | -0.584 |
| H4C16 (H4 histone 16) | 2 | -0.398 |
| H4C16 (H4 histone 16) | 3 | -0.198 |
| SLC30A6 | 1 | -0.0615 |
| SLC30A6 | 2 | -0.308 |
| SLC30A6 | 3 | -0.272 |
| SRRM3 (serine/arginine repetitive matrix 3) | 1 | -0.185 |
| SRRM3 (serine/arginine repetitive matrix 3) | 2 | -0.759 |
| SRRM3 (serine/arginine repetitive matrix 3) | 3 | 2.4 |
| NAGK (N-acetylglucosamine kinase) | 1 | -0.337 |
| NAGK (N-acetylglucosamine kinase) | 2 | -1.25 |
| NAGK (N-acetylglucosamine kinase) | 3 | -1.15 |
| ITLN1 (intelectin 1) | 1 | -0.535 |
| ITLN1 (intelectin 1) | 2 | 0.632 |
| ITLN1 (intelectin 1) | 3 | 4.43 |
| LOC728061 (retired record) | 1 | -1.08 |
| LOC728061 (retired record) | 2 | -0.412 |
| LOC728061 (retired record) | 3 | -0.767 |
| CYCS (cytochrome c, somatic) | 1 | 0.0741 |
| CYCS (cytochrome c, somatic) | 2 | 3.62 |
| CYCS (cytochrome c, somatic) | 3 | -0.844 |
| SPTAN1 (spectrin alpha, non-erythrocytic 1) | 1 | -0.767 |
| SPTAN1 (spectrin alpha, non-erythrocytic 1) | 2 | 0.953 |
| SPTAN1 (spectrin alpha, non-erythrocytic 1) | 3 | 2.19 |
| FLJ46838 (retired record) | 1 | -0.219 |
| FLJ46838 (retired record) | 2 | -0.456 |
| FLJ46838 (retired record) | 3 | 1.58 |
| TRIM23 (tripartite motif containing 23) | 1 | -0.786 |
| TRIM23 (tripartite motif containing 23) | 2 | -1.04 |
| TRIM23 (tripartite motif containing 23) | 3 | -1.12 |
| CFAP43 (cilia and flagella associated protein 43) | 1 | -0.366 |
| CFAP43 (cilia and flagella associated protein 43) | 2 | -0.642 |
| CFAP43 (cilia and flagella associated protein 43) | 3 | -0.614 |
| CIMIP2A (ciliary microtubule inner protein 2A) | 1 | -0.817 |
| CIMIP2A (ciliary microtubule inner protein 2A) | 2 | -0.365 |
| CIMIP2A (ciliary microtubule inner protein 2A) | 3 | 0.775 |
| PMPCB (peptidase, mitochondrial processing subunit beta) | 1 | -0.272 |
| PMPCB (peptidase, mitochondrial processing subunit beta) | 2 | -0.614 |
| PMPCB (peptidase, mitochondrial processing subunit beta) | 3 | 0.509 |
| LHFPL6 (LHFPL tetraspan subfamily member 6) | 1 | 0.829 |
| LHFPL6 (LHFPL tetraspan subfamily member 6) | 2 | -0.215 |
| LHFPL6 (LHFPL tetraspan subfamily member 6) | 3 | 0.886 |
